Consider two molecules from publication PMC1472246, “Structural Basis for a Munc13–1 Homodimer to Munc13–1/RIM Heterodimer Switch” (PLoS Biology, 2006).

B1: Munc13–1(3–132) (domain or fragment, rat, UniProt Q62768 3-132, looked up)
chain: LLCVGVKKAKFDGAQEKFNTYVTLKVQNVKSTTIAVRGSQPSWEQDFMFEINRLDLGLTVEVWNKGLIWDTMVGTVWIPLRTIRQSNEEGPGEWLTLDSQAIMADSEICGTKDPTFHRILLDAHFELPLD
notes: Forms a homodimer (AUC); source: bacteria, GST fusion, purified (glutathione-Sepharose, GST cleaved, size-exclusion or ion-exchange chromatography)
B2: Munc13–1(3–209) (domain or fragment, rat, UniProt Q62768 3-209, looked up)
chain: LLCVGVKKAKFDGAQEKFNTYVTLKVQNVKSTTIAVRGSQPSWEQDFMFEINRLDLGLTVEVWNKGLIWDTMVGTVWIPLRTIRQSNEEGPGEWLTLDSQAIMADSEICGTKDPTFHRILLDAHFELPLDIPEEEARYWAKKLEQLNAMRDQDEYSFQDQQDKPLPVPSSQCCNWNYFGWGEQNDDPDSAVDDRDSDYRSETSNSIP
notes: Munc13-1, rat, residues 3-209; Forms a homodimer (AUC); 15N-labelled for NMR; source: bacteria, GST fusion, purified (glutathione-Sepharose, GST cleaved, size-exclusion or ion-exchange chromatography)

For one test, the target named is Munc13–1(3–132) (rat) (UniProt Q62768). The test is described as follows: SEC; gel filtration, unpublished data (fragments and mutants not shown in Figures 1B and 4A); Superdex S75 or S200; 30 mM Tris-HCl, 150 mM NaCl, 1 mM TCEP, pH 7.4; both purified. (SEC sorts molecules by how far they enter the pores of the column.)
The test “Munc13–1(3–209)” concerns the target B2. The description is as above.

Results are given in words; binding and its absence hold for the method and conditions named. Some results given as binding are weak or reduced against the parent protein; the word gives no strength.

Consider B1, for which the binding result with Munc13–1(3–132) (rat) was “binds”.

B2: the binding result with Munc13–1(3–209) was “binds”.
